Results taken from patent publication US20190204335A1, “Assay Method For Determining The Risk Of Pre-Eclampsia” (The Queen's University of Belfast, priority 2016, published 2019).
At least one compound was matched to its structure with a doubt left.

Columns and labels:
FKBPL [1] = test: FKBPL protein expression in hearts of rats fed fenofibrate Chow (Western blotting); assay type: in vivo, Sprague Dawley rats; settings: non-diabetic rats, fenofibrate (0.18%) in Chow, 5 weeks
FKBPL [2] = test: FKBPL protein levels in HTR8.SV.neo trophoblast cells (Western blotting); assay type: cell-based; settings: 10 μM, 24 h

CC(C)OC(=O)C(C)(C)Oc1ccc(C(=O)c2ccc(Cl)cc2)cc1 [fenofibrate]
FKBPL protein levels (FKBPL [1]): increases the FKBPL protein levels
FKBPL protein levels (FKBPL [1]; listed as Fenofibrate): increases FKBPL protein expression
Relative FKBPL protein levels normalised to the vehicle control (FKBPL [2]): strong trend towards higher levels of FKBPL

CC(C)(Oc1ccc(C(=O)c2ccc(Cl)cc2)cc1)C(=O)O [fenofibric acid]
Relative FKBPL protein levels normalised to the vehicle control (FKBPL [2]): increases the FKBPL protein levels
